# Measurements from PMC7946403, “Targeted LC-MS/MS platform for the comprehensive determination of peptides in the kallikrein-kinin system” (Analytical and Bioanalytical Chemistry, 2021).
# Chains of the proteins cited; added tags and fusions are not shown. Lines headed by an entry give the natural chain unless they say otherwise; changes in a name come on top.
# UniProt P01042: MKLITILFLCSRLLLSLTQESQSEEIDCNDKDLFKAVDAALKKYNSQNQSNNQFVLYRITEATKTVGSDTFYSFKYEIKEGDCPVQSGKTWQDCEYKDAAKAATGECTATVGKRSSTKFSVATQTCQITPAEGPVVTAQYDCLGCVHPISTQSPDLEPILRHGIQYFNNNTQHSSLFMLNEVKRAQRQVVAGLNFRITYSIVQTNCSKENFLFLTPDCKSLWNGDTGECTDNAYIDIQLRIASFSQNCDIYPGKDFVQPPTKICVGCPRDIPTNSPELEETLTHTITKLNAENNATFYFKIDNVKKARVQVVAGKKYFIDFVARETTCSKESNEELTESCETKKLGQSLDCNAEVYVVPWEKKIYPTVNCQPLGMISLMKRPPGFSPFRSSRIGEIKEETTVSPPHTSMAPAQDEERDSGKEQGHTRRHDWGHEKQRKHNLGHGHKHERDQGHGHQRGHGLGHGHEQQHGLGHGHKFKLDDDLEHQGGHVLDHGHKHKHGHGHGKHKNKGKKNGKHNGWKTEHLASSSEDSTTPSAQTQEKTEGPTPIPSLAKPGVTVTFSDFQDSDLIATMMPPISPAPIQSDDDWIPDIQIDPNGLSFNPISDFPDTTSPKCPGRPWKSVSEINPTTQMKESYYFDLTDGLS
# Test: Endogenous plasma levels of kinin peptides in healthy volunteers (LC-MS/MS)
# Set-up: species or system human
# Settings: three healthy volunteers (2 men, 1 person), EDTA S-Monovettes prespiked with protease inhibitor
row,Substance,Endogenous plasma levels
1,"bradykinin 2-9 (PPGFSPFR; Bradykinin; UniProt P01042 382-389, looked up, fragment) [major metabolite of bradykinin]",below the quantification limit
2,"bradykinin 1-7 (RPPGFSP; Bradykinin; UniProt P01042 381-387, looked up, fragment)",below the quantification limit
3,"bradykinin 1-5 (RPPGF; Bradykinin; UniProt P01042 381-385, looked up, fragment)",below the quantification limit
4,Kallidin,below the quantification limit
